Reference: PubChem BioAssay AID540276 (National Center for Advancing Translational Sciences (NCATS), 2011)
Where “and” joins values, the source holds several entries; their conditions need not be identical. Identical values can stand only once. Hit rate of the full screen: of about 300,000 compounds, about 5,400 (1.8%) were called active. The shares of active, inactive and inconclusive entries below differ from those in the screen. Calls follow the shape of the full dose curve; tested in HEK293 cells. A potency beside an inconclusive call is a rough fit, not a confirmed value.

Assay: qHTS for inhibitors of binding or entry into cells for Marburg Virus
Conditions: Marburg virus pseudotyped entry inhibition, cell reporter; series mostly up to 37.8 µM
Potency is read from the fitted curve at half-maximal effect.

| Compound | Potency |
| --- | --- |
| CCOc1ccc(NC(=O)C2CC(=O)N(c3ccc(C(C)C)cc3)C2)cc1 (stereo not given) | inactive |
| CC(Oc1cccc(Br)c1)C(=O)N1CCCN(C)CC1 (stereo not given) | inconclusive: 12.6 µM [activator, partial curve, poor fit] |
| CC1CN(CCCCOc2ccc(C(C)C)cc2)CC(C)O1 (stereo not given) | inconclusive: 16.4 µM [inhibitor, single point] |
| CCOc1ccc(Nc2nc(N3CCCCC3)nc(N3CCCCC3)n2)cc1 | inconclusive: 6.51 µM [inhibitor, single point] |
| Cc1cc(C)n2nc(C(=O)N3CCCC(N4CCN(c5ccccc5C)CC4)C3)cc2n1 (stereo not given) | inconclusive: 35.5 µM [inhibitor, single point] |
| CCC(c1nnnn1CS(=O)(=O)c1ccc(C)cc1)N1CCC(C(N)=O)CC1 (stereo not given) | inconclusive: 3.16 µM [inhibitor, single point] |
| O=C1Nc2ccccc2/C1=C/c1cnc(-c2ccccc2)[nH]1 | inactive |
| COc1ccc(N2CC(C(=O)NC3CCSC3=O)CC2=O)cc1 (stereo not given) | inactive |
| O=C(CN1C(=O)NC2(CCCCCC2)C1=O)Nc1ccccc1[N+](=O)[O-] | inconclusive: 35.5 µM [inhibitor, single point] |
| CCN(CC)S(=O)(=O)c1ccc(N2CCOCC2)c(NC(=O)c2cc(=O)[nH]c3ccccc23)c1 | inconclusive: 31.6 µM [activator, single point] |
| COc1ccc(-n2nc(C(=O)NCC(=O)N3CCN(c4ccccn4)CC3)c3ccccc3c2=O)cc1Cl | inactive |
| CN1CCN(Cc2cc(=O)n3ccsc3n2)CC1 | inactive |
| CN1CCc2nc(SC(C(=O)O)c3ccccc3)c(C#N)c(-c3cccs3)c2C1 (stereo not given) | inconclusive: 6.31 µM [activator, single point] |
| Brc1cc2[nH]cnc2c2ccccc12 | inactive |
| Cc1ccccc1/C=N/Nc1ccnc2cc(Cl)ccc12 | inconclusive: 22.4 µM [inhibitor, single point] |
| COc1ccc(OCCSc2nnc(C)n2-c2ccccc2)cc1 | inconclusive: 29.1 µM [activator, single point] |
| CCCn1c2ccccc2c2nnc(SCc3[nH]c(=O)[nH]c3C(=O)CCCCC(=O)OCC)nc21 | inconclusive: 2.82 µM [activator, partial curve, poor fit] |
| C=CCNC(=O)c1cc(-c2ccc3c(c2)OCO3)on1 | inconclusive: 10 µM [inhibitor, partial curve, poor fit] |
| Cc1ccc(C(C)C)cc1OCCN1CCCC1 | inconclusive: 35.5 µM [inhibitor, single point] |
| COc1cccc(CN(C)C(=O)c2ccc(COc3ccc(Cl)cc3)cc2)c1OC | inactive |
| Fc1ccc(-n2cc(-c3ccccc3)c3c(NN4CCOCC4)ncnc32)cc1 | inconclusive: 1.16 µM [inhibitor, single point] |
| COc1ccc(Br)cc1CN1CCN(c2ncccn2)CC1 | inconclusive: 15.8 µM [inhibitor, single point] |
| O=C(NNC(=O)C1CC=CCC1)c1ccccc1O (stereo not given) | inactive |
| O=C(Nc1cccc(S(=O)(=O)C(F)F)c1)c1ccc(S(=O)(=O)N2CCCC2)cc1 | inconclusive: 2.82 µM [inhibitor, partial curve, poor fit] |

| Compound | Potency |
| --- | --- |
| C(=N\NC(=Nc1ccccc1)c1ccccn1)/c1ccccn1 | inconclusive: 35.5 µM [inhibitor, single point] |
| Cc1cccc(CSCCNC(=O)CCSc2ccccc2)c1 | inconclusive: 22.4 µM [activator, single point] |
| CC12CC(NC(=O)N1c1cccc(C(=O)NCc3ccc4c(c3)OCO4)c1)c1cc(Cl)ccc1O2 (stereo not given) | inactive and inconclusive: 35.5 µM [inhibitor, single point] |
| Cc1ccccc1-n1nc(C)c2cc(C(=O)N3CCN(S(=O)(=O)c4ccccc4)CC3)sc21 | inconclusive: 2.82 µM [activator, single point] |
| CCN(CC)CCN(C(=O)c1ccc2c(c1)CCCC2)c1nc2ccc(F)cc2s1 | inconclusive: 35.5 µM [inhibitor, single point] |
| CC(C)(C)NCC(O)c1ccccc1Cl (stereo not given) | inconclusive: 8.91 µM [inhibitor, partial curve] |
| Cc1ccc2ccccc2c1COC(=O)c1nonc1N | inactive |
| CCCCC/C(=N\NC(=O)Nc1ccccc1)c1ccccc1 | inconclusive: 2.82 µM [inhibitor, full curve] |
| CCOC(=O)c1sc(NC(=O)c2cc(-c3ccccc3)nc3ccccc23)c(C#N)c1C | inconclusive: 0.794 µM [inhibitor, full curve, poor fit] |
| N#Cc1cccc(OCc2cn(CC(=O)c3ccc(O)cc3)nn2)c1 | inconclusive: 4.99 µM [activator, partial curve, poor fit] |
| COc1cc(-c2nc(Cn3nnc(C(=O)Nc4ccccc4)c3C)c(C)o2)cc(OC)c1OC | inconclusive: 35.5 µM [inhibitor, partial curve, poor fit] |
| O=C(O)c1cccc(NC(=S)NC(=O)c2ccc(-c3ccccc3)cc2)c1 | inconclusive: 4.47 µM [activator, partial curve, poor fit] |
| O=[N+]([O-])c1ccccc1CSc1nnc2ccccn12 | inconclusive: 1.58 µM [activator, partial curve, poor fit] |
| COc1ccc(C(=O)c2coc(-c3ccccc3C(=O)O)c2C(=O)O)cc1 | inactive |
| C=CCN1CC(c2nc3ccccc3n2Cc2cccc3ccccc23)CC1=O (stereo not given) | inconclusive: 29.1 µM [inhibitor, single point] |
| CN(CC(=O)N1CCCC1)S(=O)(=O)c1cc(Cl)ccc1Cl | inconclusive: 1.16 µM [inhibitor, partial curve, poor fit] |
| Cc1onc(-c2c(Cl)cccc2Cl)c1C(=O)NCc1cccs1 | inconclusive: 2.82 µM [inhibitor, single point] |
| Cc1ccc(S(=O)(=O)N2CCCC2)s1 | inconclusive: 6.31 µM [inhibitor, single point] |
| COC(=O)c1cc(CSC(=N)N)ccc1OCCC(C)C | inconclusive: 14.1 µM [inhibitor, single point] |
| Clc1ccc(Oc2cccc(/C=N/n3cnnc3)c2)cc1 | inconclusive: 6.31 µM [inhibitor, partial curve, poor fit] |
| N#C/C(=C\c1ccccc1C(F)(F)F)C(=O)Nc1ccccc1 | inactive |
| CCn1cc(C(=O)O)c(=O)c2c1N=C(C)CC2 | inactive |
| CCOC(=O)/C(=C\c1cccnc1)C(=O)c1cc(C(C)=O)c(Nc2ccccc2)s1 | inconclusive: 3.16 µM [inhibitor, single point] |
| Cc1ccccc1CN1C(=O)/C(=C\c2ccc(C(=O)NCCN3CCOCC3)cc2)Sc2ccccc21 | inconclusive: 25.1 µM [inhibitor, single point] |

| Compound | Potency |
| --- | --- |
| COc1ccccc1CNC(=S)NCCc1ccccc1 | inactive |
| COc1ccccc1N1CC(C)(C)C(=O)N(C(=O)c2ccc(Cl)cc2)C1=S | inconclusive: 14.1 µM [inhibitor, partial curve, poor fit] |
| COc1ccc(C(=O)Nc2ccc3[nH]ccc3c2)cc1OC | inconclusive: 5.62 µM [activator, single point] |
| CCOC(=O)c1cnc(SCC(=O)Nc2sc(C)c(C)c2C#N)nc1N | inconclusive: 0.651 µM [inhibitor, partial curve, poor fit] |
| CN1CCc2nc(SCc3ccc(C(C)(C)C)cc3)c(C#N)cc2C1 | inconclusive: 6.51 µM [inhibitor, partial curve, poor fit] |
| CCCC(O)(c1ccccc1)C(c1ccccc1)c1ccccn1 (stereo not given) | inactive |
| COc1cccc(-n2c(=O)c3c4c(sc3n(Cc3ccc(C)cc3)c2=O)CCCC4)c1 | inactive |
| Cc1ccc2nc(-c3ccccc3F)c(Nc3ccc(Cl)cc3)n2c1 | inactive |
| CC(=O)N(Cc1ccc(F)cc1)c1cccc(C)c1C | inactive |
| CC(NC(=O)c1c(Cl)cnn1C)C1CCCO1 (stereo not given) | inconclusive: 3.16 µM [activator, single point] |
| CCOC(=O)C1CCN(C(=O)c2ccccc2N(C)S(C)(=O)=O)CC1 | inconclusive: 0.82 µM [inhibitor, partial curve] |
| O=C(NCCN1CCOCC1)C1CC(=O)N(c2ccc(Cl)cc2)C1 (stereo not given) | inactive |
| CCOC(=O)N1CCN(C(=O)CSc2ccc(-c3cccc(OC)c3)nn2)CC1 | inconclusive: 5.62 µM [inhibitor, full curve, poor fit] |
| O=C(Nc1nccs1)C1CC=CCC1 (stereo not given) | inactive |
| C/C=C(\C)C(=O)NNC(=O)c1sc(-c2ccccc2)nc1C | inconclusive: 2.82 µM [inhibitor, full curve, poor fit] |
| Cc1ccc(S(=O)(=O)Nc2cccc3ncccc23)s1 | active: 10 µM |
| Nc1nc2ccccc2n1C(=O)c1ccco1 | inconclusive: 0.316 µM [activator, single point] |
| O=C(NNC(=O)c1sccc1-n1cccc1)c1cccc(Cl)c1 | inconclusive: 35.5 µM [activator, single point] |
| NC(=O)c1c(NC(=O)c2ccco2)sc2c1CCC2 | inconclusive: 6.51 µM [activator, single point] |
| O=c1cc2c(nn1Cc1ccccc1)-c1ccccc1CC2 | inactive |
| CC(OC(=O)CCc1nc2ccccc2c(=O)[nH]1)C(=O)NC1CCCC1 (stereo not given) | inactive |
| CN(C)C(CNC(=O)C1CCN(S(=O)(=O)c2ccc(Cl)cc2)CC1)c1ccccc1 (stereo not given) | inconclusive: 35.5 µM [inhibitor, single point] |
